This is an account of results in article PMC9018756.

Chains of the proteins cited; added tags and fusions are not shown.
UniProt P46935: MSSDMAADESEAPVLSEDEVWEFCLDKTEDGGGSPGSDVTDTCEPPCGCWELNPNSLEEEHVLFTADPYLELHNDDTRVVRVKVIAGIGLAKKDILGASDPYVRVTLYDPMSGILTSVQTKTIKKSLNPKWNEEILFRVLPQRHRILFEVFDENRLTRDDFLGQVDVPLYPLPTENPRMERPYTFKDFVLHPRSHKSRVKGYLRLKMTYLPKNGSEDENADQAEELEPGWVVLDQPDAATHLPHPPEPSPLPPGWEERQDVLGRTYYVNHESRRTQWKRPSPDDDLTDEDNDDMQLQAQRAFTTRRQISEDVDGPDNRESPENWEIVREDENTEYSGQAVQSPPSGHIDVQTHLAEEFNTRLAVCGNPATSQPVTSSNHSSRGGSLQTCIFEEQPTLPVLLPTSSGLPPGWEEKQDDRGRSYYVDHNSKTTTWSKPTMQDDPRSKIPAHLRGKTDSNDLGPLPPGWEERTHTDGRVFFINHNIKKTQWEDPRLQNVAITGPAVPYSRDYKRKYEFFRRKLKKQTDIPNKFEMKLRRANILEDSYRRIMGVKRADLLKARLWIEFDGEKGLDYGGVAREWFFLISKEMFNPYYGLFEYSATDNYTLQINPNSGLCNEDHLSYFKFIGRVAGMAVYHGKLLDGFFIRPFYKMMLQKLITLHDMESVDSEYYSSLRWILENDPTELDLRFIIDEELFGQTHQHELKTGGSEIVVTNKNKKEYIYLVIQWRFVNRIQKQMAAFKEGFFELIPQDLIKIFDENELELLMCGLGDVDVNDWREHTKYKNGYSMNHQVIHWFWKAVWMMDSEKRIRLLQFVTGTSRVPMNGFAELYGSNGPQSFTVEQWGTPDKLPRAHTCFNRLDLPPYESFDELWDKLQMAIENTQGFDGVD
UniProt P62962: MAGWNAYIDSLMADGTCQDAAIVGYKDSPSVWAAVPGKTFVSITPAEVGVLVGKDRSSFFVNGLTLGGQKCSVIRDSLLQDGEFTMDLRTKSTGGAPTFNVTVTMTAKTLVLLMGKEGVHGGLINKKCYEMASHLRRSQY

No constants are given. Whether binding was seen depends on the method and setting. Binding seen in cells or lysates may run through a third protein. Some binding calls cover weakened binding; strength is not graded here.

In the experiment the target is Flag-tagged NEDD4 (UniProt P46935). Kind of experiment: co-IP; 293T cells transfected with Flag-Nedd4 and GFP-Pfn1; NP-40 lysis buffer; anti-Flag on protein G-Sepharose, 2 h at 4 °C, compared to control mouse IgG; western blot.

Take GFP-PFN1 (from UniProt P62962 1-140): the binding entry was “binds”.
